Measurements from publication PMC13018599.
Results are given in words; binding and its absence hold for the method and conditions named. In cells and extracts the contact can be indirect. Some binding calls cover weakened binding; strength is not graded here. Where a sequence is shown, tags or fusion partners need not be part of it.

The chains behind the UniProt entries cited, without tags or fusion partners. Residues count along the entry.
UniProt P70206, residues 28-1242: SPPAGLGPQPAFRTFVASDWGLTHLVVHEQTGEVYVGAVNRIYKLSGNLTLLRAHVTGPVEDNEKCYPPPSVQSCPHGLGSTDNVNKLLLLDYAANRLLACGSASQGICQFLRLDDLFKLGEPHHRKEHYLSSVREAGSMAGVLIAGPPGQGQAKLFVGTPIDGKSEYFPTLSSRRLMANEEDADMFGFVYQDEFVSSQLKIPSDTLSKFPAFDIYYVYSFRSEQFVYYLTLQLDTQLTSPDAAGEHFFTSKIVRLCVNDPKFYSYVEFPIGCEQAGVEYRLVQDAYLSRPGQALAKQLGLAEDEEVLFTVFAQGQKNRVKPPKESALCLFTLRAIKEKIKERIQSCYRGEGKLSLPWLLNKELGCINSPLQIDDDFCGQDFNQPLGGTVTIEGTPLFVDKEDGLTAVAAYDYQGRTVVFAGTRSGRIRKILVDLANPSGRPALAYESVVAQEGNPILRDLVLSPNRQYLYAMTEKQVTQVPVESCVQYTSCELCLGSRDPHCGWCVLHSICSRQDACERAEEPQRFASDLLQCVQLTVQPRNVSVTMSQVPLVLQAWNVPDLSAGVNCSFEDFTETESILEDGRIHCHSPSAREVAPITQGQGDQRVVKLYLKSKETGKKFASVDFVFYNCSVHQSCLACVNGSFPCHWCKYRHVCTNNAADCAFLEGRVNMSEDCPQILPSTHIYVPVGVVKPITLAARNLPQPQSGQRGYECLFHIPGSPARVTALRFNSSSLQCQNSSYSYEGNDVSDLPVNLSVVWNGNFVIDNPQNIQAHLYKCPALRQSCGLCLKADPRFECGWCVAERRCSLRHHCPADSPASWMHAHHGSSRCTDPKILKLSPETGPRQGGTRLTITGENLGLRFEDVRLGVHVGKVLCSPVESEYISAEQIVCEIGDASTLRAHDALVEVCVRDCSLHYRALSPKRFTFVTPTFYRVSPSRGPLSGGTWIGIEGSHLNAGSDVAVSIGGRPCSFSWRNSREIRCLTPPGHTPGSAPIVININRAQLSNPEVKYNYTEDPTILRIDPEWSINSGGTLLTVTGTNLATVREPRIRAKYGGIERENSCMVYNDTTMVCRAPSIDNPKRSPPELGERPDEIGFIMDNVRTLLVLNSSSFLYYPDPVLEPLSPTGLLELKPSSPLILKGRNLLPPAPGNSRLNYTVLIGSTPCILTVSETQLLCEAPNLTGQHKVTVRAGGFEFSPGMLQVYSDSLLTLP

Molecular target: extracellular region of PLXNA1, C-terminally fused to a 6X histidine tag (UniProt P70206)
Test: co-IP; PLXNA1 extracellular region-6xHis co-overexpressed with SLIT3-FL-HaloTag or SLIT3-C-HaloTag in a mouse adipocyte progenitor cell line; immunoprecipitation with a His-tag antibody

Row | binding | Binder
1 | binds | SLIT3-C-HaloTag (domain or fragment, UniProt Q9WVB4 1117-1523) LLQTSPCDQYECQNGAQCIVVQQEPTCRCPPGFAGPRCEKLITVNFVGKDSYVELASAKVRPQANISLQVATDKDNGILLYKGDNDPLALELYQGHVRLVYDSLSSPPTTVYSVETVNDGQFHSVELVMLNQTLNLVVDKGAPKSLGKLQKQPAVGSNSPLYLGGIPTSTGLSALRQGADRPLGGFHGCIHEVRINNELQDFKALPPQSLGVSPGCKSCTVCRHGLCRSVEKDSVVCECHPGWTGPLCDQEARDPCLGHSCRHGTCMATGDSYVCKCAEGYGGALCDQKNDSASACSAFKCHHGQCHISDRGEPYCLCQPGFSGHHCEQENPCMGEIVREAIRRQKDYASCATASKVPIMECRGGCGSQCCQPIRSKRRKYVFQCTDGSSFVEEVERHLECGCRACS
2 | binds | SLIT3-FL-HaloTag (ligand, UniProt Q9WVB4 34-1523) CPTKCTCSAASVDCHGLGLRAVPRGIPRNAERLDLDRNNITRITKMDFAGLKNLRVLHLEDNQVSIIERGAFQDLKQLERLRLNKNKLQVLPELLFQSTPKLTRLDLSENQIQGIPRKAFRGVTGVKNLQLDNNHISCIEDGAFRALRDLEILTLNNNNISRILVTSFNHMPKIRTLRLHSNHLYCDCHLAWLSDWLRQRRTIGQFTLCMAPVHLRGFSVADVQKKEYVCPGPHSEAPACNANSLSCPSACSCSNNIVDCRGKGLTEIPANLPEGIVEIRLEQNSIKSIPAGAFTQYKKLKRIDISKNQISDIAPDAFQGLKSLTSLVLYGNKITEIPKGLFDGLVSLQLLLLNANKINCLRVNTFQDLQNLNLLSLYDNKLQTISKGLFVPLQSIQTLHLAQNPFVCDCHLKWLADYLQDNPIETSGARCSSPRRLANKRISQIKSKKFRCSGSEDYRNRFSSECFMDLVCPEKCRCEGTIVDCSNQKLARIPSHLPEYTTDLRLNDNDISVLEATGIFKKLPNLRKINLSNNRIKEVREGAFDGAAGVQELMLTGNQLETMHGRMFRGLSSLKTLMLRSNLISCVSNDTFAGLSSVRLLSLYDNRITTITPGAFTTLVSLSTINLLSNPFNCNCHMAWLGRWLRKRRIVSGNPRCQKPFFLKEIPIQDVAIQDFTCDGNEESSCQLSPRCPEQCTCVETVVRCSNRGLHALPKGMPKDVTELYLEGNHLTAVPKELSAFRQLTLIDLSNNSISMLTNHTFSNMSHLSTLILSYNRLRCIPVHAFNGLRSLRVLTLHGNDISSVPEGSFNDLTSLSHLALGTNPLHCDCSLRWLSEWVKAGYKEPGIARCSSPESMADRLLLTTPTHRFQCKGPVDINIVAKCNACLSSPCKNNGTCSQDPVEQYRCTCPYSYKGKDCTVPINTCVQNPCEHGGTCHLSENLRDGFSCSCPLGFEGQRCEINPDDCEDNDCENSATCVDGINNYACLCPPNYTGELCDEVIDYCVPEMNLCQHEAKCISLDKGFRCECVPGYSGKLCETNNDDCVAHKCRHGAQCVDEVNGYTCICPQGFSGLFCEHPPPMVLLQTSPCDQYECQNGAQCIVVQQEPTCRCPPGFAGPRCEKLITVNFVGKDSYVELASAKVRPQANISLQVATDKDNGILLYKGDNDPLALELYQGHVRLVYDSLSSPPTTVYSVETVNDGQFHSVELVMLNQTLNLVVDKGAPKSLGKLQKQPAVGSNSPLYLGGIPTSTGLSALRQGADRPLGGFHGCIHEVRINNELQDFKALPPQSLGVSPGCKSCTVCRHGLCRSVEKDSVVCECHPGWTGPLCDQEARDPCLGHSCRHGTCMATGDSYVCKCAEGYGGALCDQKNDSASACSAFKCHHGQCHISDRGEPYCLCQPGFSGHHCEQENPCMGEIVREAIRRQKDYASCATASKVPIMECRGGCGSQCCQPIRSKRRKYVFQCTDGSSFVEEVERHLECGCRACS
